PubChem BioAssay AID624297 (National Center for Advancing Translational Sciences (NCATS), 2012)
The whole screen tested about 340,000 compounds, of which about 6,200 (1.8%) were called active. Inconclusive means that the source gave no clear call. Such entries were picked first, then a sample of the others. Calls come from the whole dose curve; as a rule, active = well fitted activation curve with a large enough effect; inconclusive = small, poorly fitted or top-dose-only effect; inactive = no such curve, though single readings can be large or run the other way. Potencies of inconclusive entries are doubtful fits and often do not repeat.
Potency is the fitted concentration of half-maximal effect.

Assay: A quantitative high throughput screen for small molecules that induce DNA re-replication in SW480 colon adenocarcinoma cells. Note: nearly all actives have a fitted effect of over 55% in size.
Conditions: Hoechst DNA content imaging, 48 h; series mostly up to 46.1 µM
How it was run: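 Treated cells incubate 48 hr (37 C, 5% CO2), are stained 40 min with Hoechst, and nuclear fluorescence is enumerated; a rise in nuclei with high DNA signal marks re-replication.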
With `COc1ccc(Oc2ccc(/C=C/C(=O)c3cccc(OC)c3)cc2[N+](=O)[O-])cc1` the Potency was inconclusive: 22.4 µM [activator, single point].
With `O=C(Nc1ccc(Cl)cc1)OCCn1nnnc1C(c1ccccc1)N1CCOCC1` (stereo not given) the Potency was inconclusive: 3.26 µM [activator, partial curve].
For `Oc1ccc(/C=N/NC(=S)N2CCOCC2)cc1`, the Potency was inconclusive: 29.1 µM [activator, single point].
With `CN1CCN(S(=O)(=O)c2ccc(NC(=O)c3ccc(Br)s3)cc2)CC1` the Potency was inconclusive: 29.1 µM [activator, single point].
For `O=C(CSc1nc(O)cc(=O)n1-c1ccc(Cl)c(Cl)c1)Nc1ccc(Cl)cc1Cl`, the Potency was “inactive”.
With `COc1cc(C(=O)OCCNC(=O)c2ccccc2)cc(OC)c1OC` the Potency was inconclusive: 20.6 µM [activator, single point].
In the case of `CN(C)C(=O)CN(c1ccc(F)c(Cl)c1)S(C)(=O)=O`, the Potency is reported as inconclusive: 18.4 µM [activator, partial curve, poor fit].
For `CCN(CC)CCNc1nc2nonc2nc1NCCN(CC)CC`, the Potency was inconclusive: 29.1 µM [activator, single point].
With `COc1ccc(CN(C(=O)c2nsc(Cl)c2Cl)C(C(=O)NC2CCCC2)c2ccc(OC)cc2)cc1` (stereo not given) the Potency was “inactive”.
With `CCCc1nnc(NC(=O)c2nc(S(=O)(=O)Cc3cccc(C)c3)ncc2Cl)s1` the Potency was inconclusive: 2.59 µM [activator, full curve].
For `CCN(CC(=O)Nc1ccc(OC)cc1)C(=O)c1ccc2c(c1)NC(=O)CS2`, the Potency was “inactive”.
For `COc1ccc(NC(=O)Nc2c[nH]c(=O)[nH]c2=O)cc1OC`, the Potency was inconclusive: 3.16 µM [activator, partial curve, poor fit].
In the case of `CCCCn1c(-c2csc(CCC)c2)n[nH]c1=S`, the Potency is reported as “inactive”.
For `Cc1ccc(C)c(N2CCN(C(=O)c3cccn4c(=O)c5sccc5nc34)CC2)c1`, the Potency was inconclusive: 18.4 µM [activator, single point].
With `O=C(CN1C(=O)NC2(CCOc3ccccc32)C1=O)NCc1ccccc1` (stereo not given) the Potency was “inactive”.
With `O=C(NC(=S)NC12CC3CC(CC(C3)C1)C2)c1ccc(F)cc1` the Potency was inconclusive: 20.6 µM [activator, partial curve, poor fit].
In the case of `Cc1ccc2nc(CSc3nc(C)ccc3C#N)[nH]c2c1`, the Potency is reported as inconclusive: 31.6 µM [activator, single point].
In the case of `O=C(CCc1ccccc1)N=C1SC2CS(=O)(=O)CC2N1c1ccc(F)cc1` (stereo not given), the Potency is reported as inconclusive: 25.9 µM [activator, single point].
With `C=CCNC(=O)COC(=O)/C=C/c1cccs1` the Potency was inconclusive: 29.1 µM [activator, single point].
In the case of `O=[N+]([O-])c1cccc(CN2CCCCCC2)c1`, the Potency is reported as “inactive”.
In the case of `O=C(Nc1ccc2c(c1)nc1n2CCN(C2CCCCC2)C1)c1ccco1`, the Potency is reported as “inactive”.
In the case of `COc1ccc(C2=NCC(CSc3nnnn3C)S2)cc1` (stereo not given), the Potency is reported as inconclusive: 29.1 µM [activator, single point].
For `COc1ccccc1N1CCN(c2ccc(-c3ccccc3)nn2)CC1`, the Potency was active: 4.11 µM.
With `Cc1ccc(NC(=O)CCn2cccc2)cc1Cl` the Potency was inconclusive: 20.6 µM [activator, partial curve, poor fit].
For `N#C/C(=C\c1ccccc1)C(=O)Nc1cccnc1`, the Potency was “inactive”.
For `Cc1ccc(C)c(OCC(O)CN2CCc3ccccc3C2)c1C` (stereo not given), the Potency was inconclusive: 16.4 µM [activator, partial curve].
In the case of `Cc1cc(C)cc(OCc2nc3ncc(Br)cc3[nH]2)c1`, the Potency is reported as active: 5.17 µM.
With `Cc1cc(N/N=C/c2ccc(Cl)cc2Cl)nc(NCc2ccccc2)n1` the Potency was inconclusive: 29.1 µM [activator, partial curve, poor fit].
In the case of `CCC(=O)Nc1nnc(-c2ccc(OC)cc2)o1`, the Potency is reported as “inactive”.
With `C/C(=C\C(=S)Nc1ccccc1)Nc1ccccc1` the Potency was inconclusive: 2.31 µM [activator, full curve, poor fit].
For `CC(C)CCNC(=O)C(C)N(Cc1ccc(F)cc1)C(=O)c1ccc(CN2CCOCC2)o1` (stereo not given), the Potency was “inactive”.
In the case of `CCSc1nnc(-c2sc3nnc(-c4ccccc4)c(-c4ccccc4)c3c2N)o1`, the Potency is reported as inconclusive: 20.6 µM [activator, single point].
For `COc1cc(/C=C/c2ccc3cccc(O)c3n2)cc(Cl)c1OC`, the Potency was active: 4.61 µM.
With `O=C(CN1C(=O)CSc2ccc(S(=O)(=O)N3CCCCCC3)cc21)NCCc1ccccc1` the Potency was “inactive”.
For `Cc1ccc(NC(=O)c2cc3ccccc3cc2O)cc1`, the Potency was “inactive”.
With `Cc1ccccc1OCCNC(=S)Nc1ccccc1` the Potency was inconclusive: 29.1 µM [activator, single point].
For `CC(C)CCNC(=O)C(c1ccco1)N(Cc1cccs1)C(=O)Cn1nnc2ccccc21` (stereo not given), the Potency was “inactive”.
With `CN1CCN(Cc2nc3ccccc3c(=O)n2CC#N)CC1` the Potency was inconclusive: 7.31 µM [activator, single point].
In the case of `O=C(CSc1n[nH]c(-c2ccccn2)n1)Nc1ccccc1F`, the Potency is reported as inconclusive: 29.1 µM [activator, single point].
In the case of `Cc1cc(C)c2c(N)c(C(=O)Nc3ccccc3Br)sc2n1`, the Potency is reported as active: 18.4 µM.
In the case of `Nn1cc(-c2ccccc2)nc1SCC(=O)Nc1ccc(S(N)(=O)=O)cc1`, the Potency is reported as inconclusive: 29.1 µM [activator, single point].
With `CCc1ccc(NC(=O)C2CCN(S(=O)(=O)c3cccs3)CC2)cc1` the Potency was inconclusive: 29.1 µM [activator, single point].
With `Oc1c(C(c2cccs2)N2CCN(c3cccc(Cl)c3)CC2)sc2ncnn12` (stereo not given) the Potency was “inactive”.
With `Cc1ccc(-c2nc3ccccc3c(=O)n2NC(=O)c2cccs2)cc1` the Potency was “inactive”.
In the case of `O=C(CNC(=O)CNC(=O)c1ccc(Cl)cc1Cl)NCc1cccc(Cl)c1`, the Potency is reported as “inactive”.
For `CCN1CCN(CC(=O)Nc2cccc(C)c2C)C(=O)C1=O`, the Potency was “inactive”.
In the case of `CCCOc1cccc(C(=O)N/N=C/c2coc3ccccc3c2=O)c1`, the Potency is reported as inconclusive: 29.1 µM [activator, single point].
With `CCOc1cccc(N(C(=O)C2COc3ccccc3O2)C(C(=O)NC2CCCCC2)c2ccc(O)cc2)c1` (stereo not given) the Potency was “inactive”.
For `CCOC(=O)c1c(NC(=O)CSc2nc3ccccc3[nH]2)sc2c1CC(C)(C)NC2(C)C`, the Potency was active: 16.4 µM.
In the case of `CC(C)n1c(=S)[nH]c2ccccc2c1=O`, the Potency is reported as inconclusive: 6.51 µM [activator, full curve].
In the case of `CCN1CCN(S(=O)(=O)c2ccc(Cl)c(C(=O)Nc3ccccc3N3CCCC3)c2)CC1`, the Potency is reported as active: 6.51 µM.
For `CS(=O)(=O)c1ccc(C(=O)OCC(=O)NC(=O)C2COc3ccccc3O2)cc1[N+](=O)[O-]` (stereo not given), the Potency was inconclusive: 18.4 µM [activator, single point].
With `COc1ccc(NC(=O)C#Cc2ccccc2)cc1` the Potency was inconclusive: 29.1 µM [activator, partial curve, poor fit].
For `O=C(Nc1ccc(F)cc1)C(Sc1nc2ccccc2[nH]1)c1ccccc1` (stereo not given), the Potency was inconclusive: 32.6 µM [activator, partial curve, poor fit].
With `Cc1cccc(NCC(=O)NNC(=S)Nc2ccccc2)c1` the Potency was “inactive”.
With `CCN(CC)S(=O)(=O)c1cc(NC(=O)CSc2nc3c(cc2C#N)C(=O)CC(C)(C)C3)ccc1C` the Potency was inconclusive: 9.2 µM [activator, partial curve, poor fit].
With `C=CCn1c(NC(=O)c2ccccc2Cl)c(C#N)c2nc3ccccc3nc21` the Potency was active: 18.4 µM.
For `COc1ccc(C2C(C#N)=C(N)Oc3n[nH]c(C)c32)cc1CN1CCN(c2ccc(F)cc2)CC1` (stereo not given), the Potency was inconclusive: 29.1 µM [activator, single point].
For `O=C(NCCc1ccc(F)cc1)C(=O)NCC1CCCN1S(=O)(=O)c1cccs1` (stereo not given), the Potency was inconclusive: 25.9 µM [activator, partial curve, poor fit].
With `O=[N+]([O-])c1ccc(N=Nc2ccc(O)c3ccccc23)cc1` the Potency was inconclusive: 2.31 µM [activator, full curve, poor fit].
For `OC1(c2cccc(C(F)(F)F)c2)CCN(c2ncnc3c2[nH]c2ccc(F)cc23)CC1`, the Potency was inconclusive: 29.1 µM [activator, single point].
In the case of `COCc1cc(C)n(CC(=O)Nc2ccc3c(c2)OCO3)c(=O)c1C#N`, the Potency is reported as “inactive”.
In the case of `Cc1ccc(S(=O)(=O)N2CCCCC2CCNC(=O)C(=O)Nc2ccccc2F)cc1` (stereo not given), the Potency is reported as “inactive”.
For `COc1ccccc1NC(=S)NCCSc1ccc(C)cc1`, the Potency was inconclusive: 29.1 µM [activator, single point].
For `COc1ccc(CN(C(=O)c2nsc(Cl)c2Cl)C(C(=O)NC2CCCC2)c2ccc(C)cc2)cc1` (stereo not given), the Potency was inconclusive: 18.4 µM [activator, single point].
With `COc1ccc(-n2cc(-c3ccccc3)[n+]3c2CCCCC3)cc1` the Potency was inconclusive: 23.1 µM [activator, single point].
With `CCCNC(=O)C1CC(=O)N(c2ccc(OCC)cc2)C1` (stereo not given) the Potency was inconclusive: 0.0046 µM [activator, full curve, poor fit].
For `Cc1ccc(C)c(N2CCN(C(=O)c3ccc(CSc4nc5ccncc5[nH]4)cc3)CC2)c1`, the Potency was inconclusive: 25.9 µM [activator, partial curve, poor fit].
With `NC(=O)CC(NC(=O)Cc1ccc(Br)cc1)c1ccc(N2CCC(Cc3ccccc3)CC2)c([N+](=O)[O-])c1` (stereo not given) the Potency was inconclusive: 0.206 µM [activator, full curve, poor fit].
For `CC(=O)Nc1sc(C)c(C)c1C(=O)OCC(=O)NCc1ccc(F)cc1`, the Potency was inconclusive: 18.4 µM [activator, single point].
